Measured data: PubChem BioAssay AID1259254 (NCATS, 2017)
Shown is an unselected part of about 59,000 reagents. Over the whole deposit, about 1,550 (2.6%) were called active. 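G2 share is only a proxy for re-replication; each gene was hit by three separate siRNAs, and active genes were retested.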 Reagents against one gene are numbered here. Further read-outs or replicates are left out here. Reagent sequences are not shown. The record does not give: the amount of reagent.

Test: 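Gene knock-downs that lead to re-replication, shown by excess G2 DNA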 (primary screen)
Cells: human HCT116 colorectal cancer cells
Reagents: single siRNA against human genes
Time to read-out: 3 days
Read-out: 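Imaged Hoechst DNA stain sorts each cell into a cycle phase by DNA amount; per plate, G2 fraction set to 0% for non-targeting and 100% for GMNN siRNA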
Reading the numbers: G2 robust z-score: higher = more G2 cells, more excess DNA replication
Active means: 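Active siRNAs have a G2 robust z of 5 or more median absolute deviations over the median, which in these data means about 38% or higher of GMNN control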

After knock-down of ZNF214 (zinc finger protein 214) #1 the results were G2 robust z-score -1.2; inactive. After knock-down of ZNF214 (zinc finger protein 214) #2 the results were G2 robust z-score 0.606; inactive. Against ZNF214 (zinc finger protein 214) #3, the values are G2 robust z-score 0.965; inactive. ACRP1 (ACR pseudogene 1) #1 scored G2 robust z-score 1.16; inactive. ACRP1 (ACR pseudogene 1) #2 showed G2 robust z-score 1.72; inactive. Against ACRP1 (ACR pseudogene 1) #3, the values are G2 robust z-score -0.521; inactive.

With knock-down of MANEA (mannosidase endo-alpha) #1 the results were G2 robust z-score -0.486; inactive. After knock-down of MANEA (mannosidase endo-alpha) #2 the results were G2 robust z-score -0.415; inactive. After knock-down of MANEA (mannosidase endo-alpha) #3, the record shows G2 robust z-score -0.358; inactive.

2 of these entries in another layout.
{"gene":"ZNF214 (zinc finger protein 214)","reagent":3,"G2 robust z-score":0.965,"Outcome":"inactive"}
{"gene":"ACRP1 (ACR pseudogene 1)","reagent":1,"G2 robust z-score":1.16,"Outcome":"inactive"}

The list goes on:
Knock-down of TMEM94 (transmembrane protein 94) #1 came out at: G2 robust z-score 2.49; inactive. With knock-down of TMEM94 (transmembrane protein 94) #2, the screen gave G2 robust z-score -0.389; inactive. For TMEM94 (transmembrane protein 94) #3, the values are G2 robust z-score 1.56; inactive. Against NOX3 (NADPH oxidase 3) #1, the values are G2 robust z-score 1.72; inactive. For NOX3 (NADPH oxidase 3) #2 the deposit lists G2 robust z-score -1.08; inactive. NOX3 (NADPH oxidase 3) #3 showed G2 robust z-score 2.19; inactive.

Against MAPKAPK2 (MAPK activated protein kinase 2) #1, the values are G2 robust z-score 1.57; inactive. With knock-down of MAPKAPK2 (MAPK activated protein kinase 2) #2 the results were G2 robust z-score 0.166; inactive. After knock-down of MAPKAPK2 (MAPK activated protein kinase 2) #3 the results were G2 robust z-score -0.187; inactive.
